Measurements as given in patent US12053451B2, “Arginase inhibitors and their therapeutic applications” (OncoArendi Therapeutics S.A., priority 2016, dated 2024).

Amino acid sequences for entries named in this document (tags omitted). Residues count along the entry.
UniProt P05089, whole entry: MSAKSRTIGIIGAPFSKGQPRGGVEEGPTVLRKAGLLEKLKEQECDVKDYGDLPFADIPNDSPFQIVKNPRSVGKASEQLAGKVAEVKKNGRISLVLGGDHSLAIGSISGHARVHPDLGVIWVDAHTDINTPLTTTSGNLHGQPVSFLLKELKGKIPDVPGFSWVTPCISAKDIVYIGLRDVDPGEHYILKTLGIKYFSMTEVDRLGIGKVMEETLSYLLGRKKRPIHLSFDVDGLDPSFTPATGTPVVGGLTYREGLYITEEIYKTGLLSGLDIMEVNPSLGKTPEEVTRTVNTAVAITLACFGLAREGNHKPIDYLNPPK
UniProt P78540, 23-354 limits assumed: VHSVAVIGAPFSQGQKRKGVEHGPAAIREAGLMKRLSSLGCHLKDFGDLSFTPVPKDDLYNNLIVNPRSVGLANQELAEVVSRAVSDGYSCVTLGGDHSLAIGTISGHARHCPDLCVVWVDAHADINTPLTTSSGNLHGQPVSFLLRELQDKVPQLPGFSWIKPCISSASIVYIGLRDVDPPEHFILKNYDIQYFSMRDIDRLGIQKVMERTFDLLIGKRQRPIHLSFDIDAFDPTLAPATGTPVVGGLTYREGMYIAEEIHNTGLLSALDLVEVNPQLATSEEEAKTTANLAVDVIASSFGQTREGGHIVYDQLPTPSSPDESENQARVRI

How the values were obtained:
[1] = target: recombinant human arginase 1 (Homo sapiens, UniProt P05089); assay: Human arginase activity assay (urea measurement), arginase 1; assay type: biochemical; settings: read-out: Activity Class (ARG I); recombinant human arginase 1, pH 7.4, 37° C., 60 min; * = value for the most potent diastereoisomer or the mixture of diastereoisomers; tested form: HCl
[2] = target: recombinant human arginase 2 (Homo sapiens, UniProt P78540); assay: Human arginase activity assay (urea measurement), arginase 2; settings: read-out: Activity Class (ARG II), for selected examples class estimated from % of inhibition at 1 μM and 100 μM, * = most potent diastereoisomer or mixture of diastereoisomers, tested form: HCl

NC1(C(=O)O)CC(CCB(O)O)CC1O (centres unmarked)
IC50 [1]: 1 to 10 µM | IC50 [2]: 10 to 100 µM

The structures given here were assigned with low confidence; some may be wrong.
